Results as given in article PMC8357632.
These are yes or no findings as the source states them, for the method shown. For some of these results: In cells and extracts the contact can be indirect. Some results given as binding are weak or reduced against the parent protein; the word gives no strength.

Experiments:
[1] = biological target: T1, Snu71 (S. cerevisiae (endogenous in yeast whole-cell extract)) (UniProt P53207); test: cross-linking; CXMS: MS2 affinity-purified ΔBS-A pre-A complexes cross-linked with 250 μM BS3 for 1 h at 8 °C, glycerol gradient, tryptic digest, mass spectrometry, pLink 2.3.9, FDR 1% or 5%
T1 sequence: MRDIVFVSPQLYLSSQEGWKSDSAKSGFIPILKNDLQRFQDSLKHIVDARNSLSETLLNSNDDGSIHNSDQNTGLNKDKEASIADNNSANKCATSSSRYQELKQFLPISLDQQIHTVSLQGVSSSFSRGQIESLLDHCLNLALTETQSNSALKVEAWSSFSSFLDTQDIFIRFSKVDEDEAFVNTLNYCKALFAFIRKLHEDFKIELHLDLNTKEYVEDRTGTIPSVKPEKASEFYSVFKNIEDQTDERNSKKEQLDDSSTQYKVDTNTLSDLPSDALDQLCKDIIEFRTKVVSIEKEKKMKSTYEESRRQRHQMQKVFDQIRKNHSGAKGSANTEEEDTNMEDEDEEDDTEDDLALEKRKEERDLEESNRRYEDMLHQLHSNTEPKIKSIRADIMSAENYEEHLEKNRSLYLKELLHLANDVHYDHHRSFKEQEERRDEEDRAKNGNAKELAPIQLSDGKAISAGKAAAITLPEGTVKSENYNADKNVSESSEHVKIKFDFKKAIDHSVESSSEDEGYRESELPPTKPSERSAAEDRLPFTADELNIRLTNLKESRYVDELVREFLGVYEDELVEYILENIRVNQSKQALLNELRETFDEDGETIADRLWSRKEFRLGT

[2] = biological target: T2, Rse1 (S. cerevisiae (endogenous in yeast whole-cell extract)) (UniProt Q04693); test: as above
T2 sequence: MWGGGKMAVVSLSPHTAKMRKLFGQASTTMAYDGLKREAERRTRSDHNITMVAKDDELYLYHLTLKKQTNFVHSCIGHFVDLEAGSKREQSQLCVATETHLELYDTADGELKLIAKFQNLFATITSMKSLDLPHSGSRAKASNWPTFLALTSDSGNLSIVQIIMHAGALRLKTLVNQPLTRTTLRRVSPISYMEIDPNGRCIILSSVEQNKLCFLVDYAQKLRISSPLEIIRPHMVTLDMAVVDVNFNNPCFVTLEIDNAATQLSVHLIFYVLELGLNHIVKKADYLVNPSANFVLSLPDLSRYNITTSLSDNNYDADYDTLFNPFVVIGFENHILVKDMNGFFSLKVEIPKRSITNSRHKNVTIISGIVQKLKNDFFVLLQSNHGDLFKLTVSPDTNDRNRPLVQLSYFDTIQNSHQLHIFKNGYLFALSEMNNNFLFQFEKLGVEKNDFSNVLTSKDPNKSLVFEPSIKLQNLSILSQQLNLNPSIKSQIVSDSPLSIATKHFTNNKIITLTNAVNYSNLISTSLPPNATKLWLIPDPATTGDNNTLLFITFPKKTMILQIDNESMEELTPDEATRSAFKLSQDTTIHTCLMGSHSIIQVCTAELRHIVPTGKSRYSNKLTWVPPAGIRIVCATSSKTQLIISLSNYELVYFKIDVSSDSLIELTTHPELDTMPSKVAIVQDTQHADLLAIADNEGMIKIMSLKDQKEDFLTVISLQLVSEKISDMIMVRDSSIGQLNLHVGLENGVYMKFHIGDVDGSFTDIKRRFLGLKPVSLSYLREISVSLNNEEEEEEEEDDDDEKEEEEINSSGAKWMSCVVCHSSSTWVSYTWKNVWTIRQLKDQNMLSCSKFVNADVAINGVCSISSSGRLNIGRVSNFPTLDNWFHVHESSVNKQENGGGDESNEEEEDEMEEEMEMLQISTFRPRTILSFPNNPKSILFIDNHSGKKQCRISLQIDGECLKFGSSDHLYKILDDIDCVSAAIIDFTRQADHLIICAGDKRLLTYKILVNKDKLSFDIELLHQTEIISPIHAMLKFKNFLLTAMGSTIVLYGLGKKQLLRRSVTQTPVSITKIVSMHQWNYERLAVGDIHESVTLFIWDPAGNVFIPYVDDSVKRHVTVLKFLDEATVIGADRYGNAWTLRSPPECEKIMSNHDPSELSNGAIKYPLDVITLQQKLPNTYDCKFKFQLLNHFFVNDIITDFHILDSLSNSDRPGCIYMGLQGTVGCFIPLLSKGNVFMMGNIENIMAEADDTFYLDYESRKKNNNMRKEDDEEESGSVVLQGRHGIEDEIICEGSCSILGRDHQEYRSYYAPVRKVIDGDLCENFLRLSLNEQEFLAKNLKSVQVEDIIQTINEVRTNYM

[3] = biological target: T3, Prp9 (S. cerevisiae (endogenous in yeast whole-cell extract)) (UniProt P19736); test: cryo-EM structure; U257A pre-A complex assembled in yeast extract on U257A Act pre-mRNA; 10.4 Å overall, U1 7.5 Å, U2 13 Å; the ΔBS-A pre-A model fitted into the density
T3 sequence: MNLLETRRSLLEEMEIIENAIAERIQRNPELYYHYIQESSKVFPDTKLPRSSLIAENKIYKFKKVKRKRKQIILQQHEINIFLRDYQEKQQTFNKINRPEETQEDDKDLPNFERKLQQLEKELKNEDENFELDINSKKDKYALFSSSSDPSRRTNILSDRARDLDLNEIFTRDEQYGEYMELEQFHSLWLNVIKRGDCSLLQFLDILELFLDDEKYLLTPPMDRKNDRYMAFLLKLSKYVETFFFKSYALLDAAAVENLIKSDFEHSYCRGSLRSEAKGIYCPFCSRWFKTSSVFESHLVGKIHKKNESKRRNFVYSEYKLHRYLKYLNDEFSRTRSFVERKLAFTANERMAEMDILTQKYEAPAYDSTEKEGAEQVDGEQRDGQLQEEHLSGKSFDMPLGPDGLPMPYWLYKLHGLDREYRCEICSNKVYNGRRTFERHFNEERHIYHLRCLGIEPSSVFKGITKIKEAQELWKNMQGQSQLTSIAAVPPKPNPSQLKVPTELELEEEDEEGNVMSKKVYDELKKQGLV

[4] = biological target: T3, Prp9 (S. cerevisiae (endogenous in yeast whole-cell extract)); test: cryo-EM structure; ΔBS-A pre-A complex assembled in yeast extract on MS2-tagged ΔBS-A Act pre-mRNA, amylose affinity purified, BS3 and glutaraldehyde gradient fixed; 5.9 Å overall, U1 4.1 Å, U2 5'-region 8.3 Å, U2 3'-region 9.5 Å; U2 components docked as rigid bodies

Measured: binding

B1: Prp5 (enzyme, UniProt P21372 1-849)
chain: METIDSKQNINRESLLEERRKKLAKWKQKKAQFDAQKEHQTSRNDIVTNSLEGKQTTEKFTERQERVKEELRKRKNEFRKSDEPVSVKPSKKKSKRSKVKKKISFDFSDDDDSEIGVSFRSKEHIQKAPEHDNEKDPLDEFMTSLKEEKMSNSKGMYDRGDILDVEDQLFELGGTDDEDVEDNTDNSNIAKIAKLKAKKRVKQIYYSPEELEPFQKNFYIESETVSSMSEMEVEELRLSLDNIKIKGTGCPKPVTKWSQLGLSTDTMVLITEKLHFGSLTPIQSQALPAIMSGRDVIGISKTGSGKTISYLLPLLRQVKAQRPLSKHETGPMGLILAPTRELALQIHEEVTKFTEADTSIRSVCCTGGSEMKKQITDLKRGTEIVVATPGRFIDILTLNDGKLLSTKRITFVVMDEADRLFDLGFEPQITQIMKTVRPDKQCVLFSATFPNKLRSFAVRVLHSPISITINSKGMVNENVKQKFRICHSEDEKFDNLVQLIHERSEFFDEVQSENDGQSSDVEEVDAKAIIFVSSQNICDFISKKLLNAGIVTCAIHAGKPYQERLMNLEKFKREKNSILLCTEVLSRGLNVPEVSLVIIYNAVKTFAQYVHTTGRTARGSRSGTAITLLLHDELSGAYILSKAMRDEEIKALDPLQAKELQEMSAKFESGMKKGKFRLSKGFGGKGLENIKSKREEAQNKDLELKKNDKRSDDLEKKISNPREGHDSVSESSALIPRLNYELFKESTDGSIIFYAKVYINDLPQIVRWEATKNTTLLFIKHETGCSITNKGKFYPEGKEPKNENDEPKLYLLIEGQDEKDIQLSIELLEQKVKEGVVKAASLSLKSTKY
binds: all assays above
